PubChem BioAssay AID504784 | Drosophila RNAi Screening Center, 2011
The screen tested about 17,000 reagents; this is an unselected part of those with a known target gene and a result. 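Each column is one replicate's B-score; the combined score over replicates was not deposited, so single values may mislead.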 A plus sign joins genes that one reagent is predicted to hit. Further read-outs or replicates are left out here. No sequences are given here.

Purpose: 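Fly genes whose silencing alters how much lipid cells keep in droplets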 (primary screen)
System: Drosophila Kc167 embryonic cells
Knock-down reagent: long dsRNA against Drosophila genes, about 250 ng dsRNA per well
Duration: 4 days
Challenge: cells fed 400 µM oleic acid bound to BSA
Detection: 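Microscope images give a droplet-to-nucleus area ratio, taken as log and converted to a screen-wide B-score; higher values mean greater lipid storage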
Scale: droplet/nuclear area B-score: higher = more stored lipid (overstorage)

droplet/nuclear area B-score, replicate 1, by gene knocked down and reagent
mRpL15 (mitochondrial ribosomal protein L15): DRSC11771 2.54
Chchd3 (Coiled-coil-helix-coiled-coil-helix domain containing 3): DRSC16981 3.13
PI31 (Proteasome inhibitor 31 kDa): DRSC07306 0.638
CG15482: DRSC02492 -1.02
CG8372: DRSC03086 0.887
CG17637: DRSC11740 0.569
jigr1 (jing interacting gene regulatory 1): DRSC15233 -1.61; DRSC22617 1.46
Hsp27 (Heat shock protein 27): DRSC11190 -0.124
Vps24 (Vacuolar protein sorting 24): DRSC12332 2.11
CG10444: DRSC05990 -1.41
Lon (Lon protease): DRSC11049 -0.4
Wdr33 (WD repeat domain 33): DRSC12162 -0.124
CG17824 (retired record): DRSC10288 0.48
Ptr (Patched-related): DRSC04852 0.643; DRSC21517 -0.203
Sgs5bis: DRSC16263 -1.34
Ptp36E (Protein tyrosine phosphatase 36E): DRSC03021 0.000693
CG12520: DRSC09892 -1.3
Irp-1B (Iron regulatory protein 1B): DRSC16720 -0.0561
Rep (Rab escort protein): DRSC07526 1.63
Jhbp4 (Juvenile hormone binding protein 4): DRSC14222 0.0645
CG18139 (retired record) + Hmx: DRSC15307 0.935
LeuRS (Leucyl-tRNA synthetase): DRSC00581 0.686
CG14082: DRSC10086 -1.61
Nadk2 (NAD kinase 2, mitochondrial): DRSC07072 0.969
CG14015: DRSC02346 -0.367
ana1 (anastral spindle 1): DRSC16079 -0.578; DRSC21825 1.85
ci (cubitus interruptus): DRSC17172 0.803
CG15812: DRSC08479 -0.618
Prx4 (Peroxiredoxin 4): DRSC08668 1.74
pelo (pelota): DRSC03588 -1.01
CG4198: DRSC18354 0.125
